Data from article PMC2824034, “The indispensable N-terminal half of eIF3j/HCR1 co-operates with its structurally conserved binding partner eIF3b/PRT1-RRM and eIF1A in stringent AUG selection” (Journal of molecular biology, 2010).
These are yes or no findings as the source states them, for the method shown. For part of these data: Binding seen in cells or lysates may run through a third protein. Some results given as binding are weak or reduced against the parent protein; the word gives no strength. For part of these data: Tags and fused reporters may be left off the sequences shown. Each block holds one molecule with its values, some of them ahead of it.

By UniProt entry, the sequences of proteins in these tests, tags left out. Where a name states a change or a piece, a line headed by the entry shows the natural chain unless it says otherwise. Residues count along the entry.
UniProt Q05775, residues 136-265: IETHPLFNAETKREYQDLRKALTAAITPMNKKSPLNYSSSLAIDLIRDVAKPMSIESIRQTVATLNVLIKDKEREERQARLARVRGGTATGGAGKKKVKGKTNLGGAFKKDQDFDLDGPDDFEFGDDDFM
UniProt O75822: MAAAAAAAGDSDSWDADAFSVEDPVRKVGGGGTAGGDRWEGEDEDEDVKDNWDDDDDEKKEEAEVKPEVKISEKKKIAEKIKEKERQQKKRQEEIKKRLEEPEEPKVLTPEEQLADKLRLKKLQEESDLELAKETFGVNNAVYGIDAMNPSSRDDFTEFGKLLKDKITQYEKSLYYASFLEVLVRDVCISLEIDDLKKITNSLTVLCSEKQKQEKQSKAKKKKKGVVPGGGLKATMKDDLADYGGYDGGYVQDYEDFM
UniProt P0CX29: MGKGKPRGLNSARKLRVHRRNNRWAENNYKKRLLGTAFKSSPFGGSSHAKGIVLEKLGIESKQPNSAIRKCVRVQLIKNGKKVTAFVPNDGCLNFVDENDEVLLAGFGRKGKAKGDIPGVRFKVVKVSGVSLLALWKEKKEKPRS

Tests used:
[1] = molecular target: T1, GST-RPS2 (S. cerevisiae) (UniProt P25443); experiment: pull-down; GST fusions from E. coli immobilized on glutathione-Sepharose beads, incubated with 10 μl of in vitro-synthesized 35S-labeled partner at 4°C for 2 h; washed 3 times with phosphate-buffered saline; SDS-PAGE, autoradiography; only the target purified
T1 sequence: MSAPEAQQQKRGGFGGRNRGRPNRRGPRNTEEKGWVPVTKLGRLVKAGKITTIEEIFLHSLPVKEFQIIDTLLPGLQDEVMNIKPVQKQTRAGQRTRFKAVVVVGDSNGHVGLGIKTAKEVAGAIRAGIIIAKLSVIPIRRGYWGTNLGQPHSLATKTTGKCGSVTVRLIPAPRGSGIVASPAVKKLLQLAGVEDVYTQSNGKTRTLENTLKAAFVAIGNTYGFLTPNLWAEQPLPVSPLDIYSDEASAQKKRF

[2] = molecular target: GST-j/hcr1-CTD [136-265] (S. cerevisiae) (UniProt Q05775); experiment: as above
[3] = molecular target: T2, heIF3j-N51A-W52A (human, UniProt O75822 1-258, N51A | W52A); experiment: ITC; VP-ITC; cell: 50 μM full-length heIF3j wt or mutant; syringe: 1 mM heIF3b-RRM; 20 mM Hepes pH 7.5, 200 mM NaCl, 25°C; both purified
T2 construct: human eIF3j, full length, N51A and W52A; source: E. coli BL21(DE3), purified (nickel-chelating column, TEV cleavage, second nickel column)

[4] = molecular target: T3, heIF3j-D50K-D53K-D57K (human, UniProt O75822 1-258, D50K | D53K | D57K); experiment: as above
T3 construct: human eIF3j, full length, D50K, D53K and D57K; source: E. coli BL21(DE3), purified (nickel-chelating column, TEV cleavage, second nickel column)

[5] = molecular target: T4, heIF3j-W52A (human, UniProt O75822 1-258, W52A); experiment: as above
T4 construct: human eIF3j, full length, W52A; source: E. coli BL21(DE3), purified (nickel-chelating column, TEV cleavage, second nickel column)

B1: 35S-labeled wt RPS2 (protein, UniProt P25443 1-254)
chain: MSAPEAQQQKRGGFGGRNRGRPNRRGPRNTEEKGWVPVTKLGRLVKAGKITTIEEIFLHSLPVKEFQIIDTLLPGLQDEVMNIKPVQKQTRAGQRTRFKAVVVVGDSNGHVGLGIKTAKEVAGAIRAGIIIAKLSVIPIRRGYWGTNLGQPHSLATKTTGKCGSVTVRLIPAPRGSGIVASPAVKKLLQLAGVEDVYTQSNGKTRTLENTLKAAFVAIGNTYGFLTPNLWAEQPLPVSPLDIYSDEASAQKKRF
- binding [2]: binds weakly

B2: heIF3b-RRM_(170-274) (domain or fragment, human, UniProt P55884 170-274, looked up)
chain: GDVLKDRPQEADGIDSVIVVDNVPQVGPDRLEKLKNVIHKIFSKFGKITNDFYPEEDGKTKGYIFLEYASPAHAVDAVKNADGYKLDKQHTFRVNLFTDFDKYMT
notes: 13C/15N-labeled in some NMR samples; The limits are printed for the NMR complex; the ITC names only heIF3b-RRM; also called human eIF3b-RRM; heIF3b-RRM domain; source: E. coli BL21(DE3), purified (nickel-chelating column, TEV cleavage, second nickel column)
- binding [3]: no binding (tested: Kd values larger than 10 mM)
- binding [4]: no binding (tested: Kd values larger than 10 mM)
- binding [5]: no binding (tested: Kd values larger than 10 mM)

The remaining lines, values ahead:

- binding [1]: binds weakly
Molecule: 35S-labeled j/hcr1-CTD (from UniProt Q05775 136-265) (domain or fragment)

- binding [2]: binds weakly
Molecule: 35S-labeled wt RPS23 (from UniProt P0CX29 1-145)
